# Source: the supplement of paper PMC6411743
# ± gives the standard deviation of the averaged measurements. This is a selection; strong and weak results do not stand in their true shares.
# Tests used:
# Experiment in all cases: NP40-soluble protein abundance relative to vehicle (solubility fold change) (ratio); higher = more soluble protein in presence of AMP-PNP
# [1] = target: T1, A0A087WTW0|A0A087WVR3|Q96T88 and related entries (UniProt Q96T88)
# T1 sequence (whole entry): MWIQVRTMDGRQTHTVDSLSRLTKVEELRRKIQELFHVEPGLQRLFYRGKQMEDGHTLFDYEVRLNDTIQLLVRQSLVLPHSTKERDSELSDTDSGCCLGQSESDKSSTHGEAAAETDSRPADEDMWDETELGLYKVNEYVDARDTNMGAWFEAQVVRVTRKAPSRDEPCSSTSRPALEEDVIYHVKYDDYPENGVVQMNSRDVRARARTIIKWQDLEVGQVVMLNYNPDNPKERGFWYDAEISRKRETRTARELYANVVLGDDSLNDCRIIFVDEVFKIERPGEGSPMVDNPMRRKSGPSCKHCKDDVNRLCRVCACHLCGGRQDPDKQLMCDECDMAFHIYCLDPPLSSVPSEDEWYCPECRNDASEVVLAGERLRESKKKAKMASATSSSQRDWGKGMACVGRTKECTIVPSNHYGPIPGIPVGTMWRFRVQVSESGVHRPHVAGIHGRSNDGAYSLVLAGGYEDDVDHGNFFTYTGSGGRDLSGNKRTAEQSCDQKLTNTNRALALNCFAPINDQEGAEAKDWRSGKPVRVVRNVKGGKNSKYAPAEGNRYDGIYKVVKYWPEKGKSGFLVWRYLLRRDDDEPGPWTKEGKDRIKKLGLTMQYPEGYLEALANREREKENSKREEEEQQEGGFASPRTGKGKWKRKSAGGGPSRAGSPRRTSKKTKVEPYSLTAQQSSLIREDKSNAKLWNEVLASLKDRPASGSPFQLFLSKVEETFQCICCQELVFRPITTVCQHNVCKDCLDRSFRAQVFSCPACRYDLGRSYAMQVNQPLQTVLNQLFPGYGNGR
# How it was run: (§1)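 Crude Jurkat lysate, prepared by Dounce homogenisation, was exposed to eight concentrations from 0.1 to 10 mM for 10 min at room temperature and then 3 min at 37 °C. Solubilisation used 0.8% NP40 with benzonase for 60 min at 4 °C, followed by ultracentrifugation and TMT labelling of the supernatant for LC-MS/MS. After vsn normalisation of intensities, each value is the fold change against the detergent-processed vehicle within each replicate, across three independent experiments.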
# A0A087WUA5|Q9H223 = target: T2, A0A087WUA5|Q9H223 (UniProt Q9H223)
# T2 sequence (whole entry): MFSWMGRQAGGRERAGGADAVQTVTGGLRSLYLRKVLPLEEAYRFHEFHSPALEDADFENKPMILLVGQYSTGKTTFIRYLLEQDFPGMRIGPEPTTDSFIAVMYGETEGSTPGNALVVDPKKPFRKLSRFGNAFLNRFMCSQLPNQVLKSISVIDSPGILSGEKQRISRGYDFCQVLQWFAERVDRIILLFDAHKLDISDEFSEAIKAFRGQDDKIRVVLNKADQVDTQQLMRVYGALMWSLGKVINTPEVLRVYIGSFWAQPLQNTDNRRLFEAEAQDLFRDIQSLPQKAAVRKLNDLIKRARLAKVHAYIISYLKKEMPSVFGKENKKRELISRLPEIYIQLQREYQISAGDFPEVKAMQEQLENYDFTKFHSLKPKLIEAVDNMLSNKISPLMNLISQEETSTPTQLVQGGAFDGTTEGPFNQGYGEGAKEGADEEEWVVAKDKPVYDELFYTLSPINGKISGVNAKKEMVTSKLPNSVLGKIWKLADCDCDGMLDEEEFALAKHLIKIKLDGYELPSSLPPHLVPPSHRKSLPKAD
# How it was run: as §1
# A0A087WVU5|O00512 = target: T3, A0A087WVU5|O00512 (UniProt O00512)
# T3 sequence (whole entry): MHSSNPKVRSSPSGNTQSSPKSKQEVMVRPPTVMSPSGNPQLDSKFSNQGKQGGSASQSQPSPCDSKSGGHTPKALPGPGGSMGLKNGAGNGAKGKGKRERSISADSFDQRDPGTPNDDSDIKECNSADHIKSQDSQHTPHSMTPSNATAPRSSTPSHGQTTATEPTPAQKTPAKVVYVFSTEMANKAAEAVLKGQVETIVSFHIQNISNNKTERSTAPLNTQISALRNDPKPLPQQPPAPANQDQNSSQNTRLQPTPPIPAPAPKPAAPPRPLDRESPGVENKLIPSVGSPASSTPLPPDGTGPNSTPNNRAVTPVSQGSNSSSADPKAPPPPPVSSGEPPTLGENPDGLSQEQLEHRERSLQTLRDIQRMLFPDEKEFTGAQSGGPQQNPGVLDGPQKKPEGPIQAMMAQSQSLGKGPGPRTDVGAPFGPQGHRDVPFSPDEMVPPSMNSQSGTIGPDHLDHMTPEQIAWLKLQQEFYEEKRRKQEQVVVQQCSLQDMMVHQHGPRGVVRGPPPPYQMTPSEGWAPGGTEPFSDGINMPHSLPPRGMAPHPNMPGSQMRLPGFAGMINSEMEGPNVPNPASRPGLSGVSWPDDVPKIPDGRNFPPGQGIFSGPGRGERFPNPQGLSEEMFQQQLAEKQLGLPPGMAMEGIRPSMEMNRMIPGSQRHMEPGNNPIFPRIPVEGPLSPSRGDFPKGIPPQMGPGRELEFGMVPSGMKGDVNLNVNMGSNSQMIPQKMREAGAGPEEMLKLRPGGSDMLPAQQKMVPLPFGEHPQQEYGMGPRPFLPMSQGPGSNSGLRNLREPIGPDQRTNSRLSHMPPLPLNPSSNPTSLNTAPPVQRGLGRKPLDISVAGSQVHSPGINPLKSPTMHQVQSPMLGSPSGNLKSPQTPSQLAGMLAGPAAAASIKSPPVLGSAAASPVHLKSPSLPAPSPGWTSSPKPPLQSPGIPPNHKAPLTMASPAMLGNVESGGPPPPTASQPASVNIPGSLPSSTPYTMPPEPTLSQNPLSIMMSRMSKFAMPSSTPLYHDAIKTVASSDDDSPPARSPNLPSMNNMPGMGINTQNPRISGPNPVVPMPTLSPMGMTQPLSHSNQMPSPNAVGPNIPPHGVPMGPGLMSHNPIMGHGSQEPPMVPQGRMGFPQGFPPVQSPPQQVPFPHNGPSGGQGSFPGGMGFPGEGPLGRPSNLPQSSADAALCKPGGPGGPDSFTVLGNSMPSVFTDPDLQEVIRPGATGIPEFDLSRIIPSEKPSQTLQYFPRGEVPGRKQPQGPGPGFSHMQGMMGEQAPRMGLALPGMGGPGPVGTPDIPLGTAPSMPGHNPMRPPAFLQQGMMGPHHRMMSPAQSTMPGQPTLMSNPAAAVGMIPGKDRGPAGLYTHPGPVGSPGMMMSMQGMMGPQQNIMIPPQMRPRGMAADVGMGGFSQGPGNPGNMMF
# How it was run: as §1
# A0A087WVZ0|Q9Y5U8 = target: T4, A0A087WVZ0|Q9Y5U8 (UniProt Q9Y5U8)
# T4 sequence (whole entry): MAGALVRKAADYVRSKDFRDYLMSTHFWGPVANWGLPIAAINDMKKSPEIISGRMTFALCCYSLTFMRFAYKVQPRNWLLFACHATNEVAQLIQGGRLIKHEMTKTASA
# How it was run: as §1
compound,measurement,setting,value
Nc1ncnc2c1ncn2[C@@H]1O[C@H](COP(=O)(O)OP(=O)(O)NP(=O)(O)O)[C@@H](O)[C@H]1O [adenylyl imidodiphosphate],NP40-soluble protein abundance,[1]; concentration: 1mM,1.03 ± 0.012
same,NP40-soluble protein abundance,[1]; concentration: 2mM,1.01 ± 0.03
same,NP40-soluble protein abundance,[1]; concentration: 4mM,1.06 ± 0.016
same,NP40-soluble protein abundance,[1]; concentration: 6mM,1.05 ± 0.013
same,NP40-soluble protein abundance,[1]; concentration: 8mM,1.07 ± 0.029
same,NP40-soluble protein abundance,[1]; concentration: 10mM,1.12 ± 0.064
same,NP40-soluble protein abundance,A0A087WUA5|Q9H223; concentration: 1mM,1.01 ± 0.017
same,NP40-soluble protein abundance,A0A087WUA5|Q9H223; concentration: 2mM,1.01 ± 0.034
same,NP40-soluble protein abundance,A0A087WUA5|Q9H223; concentration: 4mM,1.03 ± 0.011
same,NP40-soluble protein abundance,A0A087WUA5|Q9H223; concentration: 6mM,0.998 ± 0.02
same,NP40-soluble protein abundance,A0A087WUA5|Q9H223; concentration: 8mM,0.992 ± 0.019
same,NP40-soluble protein abundance,A0A087WUA5|Q9H223; concentration: 10mM,1 ± 0.032
same,NP40-soluble protein abundance,A0A087WVU5|O00512; concentration: 1mM,0.986 ± 0.012
same,NP40-soluble protein abundance,A0A087WVU5|O00512; concentration: 2mM,1 ± 0.033
same,NP40-soluble protein abundance,A0A087WVU5|O00512; concentration: 4mM,0.986 ± 0.015
same,NP40-soluble protein abundance,A0A087WVU5|O00512; concentration: 6mM,0.984 ± 0.023
same,NP40-soluble protein abundance,A0A087WVU5|O00512; concentration: 8mM,0.969 ± 0.027
same,NP40-soluble protein abundance,A0A087WVU5|O00512; concentration: 10mM,0.985 ± 0.012
same,NP40-soluble protein abundance,A0A087WVZ0|Q9Y5U8; concentration: 1mM,0.9859 ± 0.0043
same,NP40-soluble protein abundance,A0A087WVZ0|Q9Y5U8; concentration: 2mM,0.962 ± 0.01
same,NP40-soluble protein abundance,A0A087WVZ0|Q9Y5U8; concentration: 4mM,0.962 ± 0.022
same,NP40-soluble protein abundance,A0A087WVZ0|Q9Y5U8; concentration: 6mM,0.994 ± 0.077
same,NP40-soluble protein abundance,A0A087WVZ0|Q9Y5U8; concentration: 8mM,1.03 ± 0.087
same,NP40-soluble protein abundance,A0A087WVZ0|Q9Y5U8; concentration: 10mM,1.01 ± 0.032

# In a second layout: results already given
compound	measurement	setting	value
Nc1ncnc2c1ncn2[C@@H]1O[C@H](COP(=O)(O)OP(=O)(O)NP(=O)(O)O)[C@@H](O)[C@H]1O [adenylyl imidodiphosphate]	NP40-soluble protein abundance	A0A087WUA5|Q9H223; concentration: 1mM	1.01 ± 0.017
same	NP40-soluble protein abundance	A0A087WUA5|Q9H223; concentration: 2mM	1.01 ± 0.034
